In PubChem BioAssay AID493014 (National Center for Advancing Translational Sciences (NCATS), 2011) one finds AC50 data, which are given here for 18 molecules.

This is one part of the list. The main result of the screen is listed elsewhere. These columns were measured beside it and carry no call. Compounds called inactive in the main read-out are mostly missing here. Potencies come from curve fits of mixed quality, noted in brackets.

A short description of the assay: qHTS Assay to Find Inhibitors of Chronic Active B-Cell Receptor Signaling. Particulars: ABC-DLBCL IkBa-CBG/CBR reporter, luminescence ratio (green luciferase fused to IkBa over red control in TMD8 lymphoma cells), 4 h; measured here: CBR red luminescence, cell number. In a few lines: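 Cell line TMD8 (human ABC DLBCL), stably expressing tet-inducible CBG68-IkBa fusion and CBR; IMDM/0.5% FBS; cpd up to 46 uM; dox induction, 4 h, 37C/5% CO2; dual luminescence; green/red ratio; MG132 control.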
Background: Quantitative high-throughput screening tests each substance at several concentrations.
Regarding `O=C(CSc1nnnn1-c1ccccc1)Nc1ncc2c(n1)CC(c1ccco1)CC2=O` (stereo not drawn), the AC50 – broadly, the concentration at which the activity in the assay is half-maximal – was 25.1 µM [falling, single point].
Regarding `NC(=O)CCCc1nc(-c2ccccc2)no1`, the AC50 is 8.91 µM [rising, partial curve].
For `CCOC(=O)N1CCN(C(=O)c2cccn3c(=O)c4c5c(sc4nc23)CCCC5)CC1`, the half-maximal activity concentration (AC50) was 6.31 µM [rising, full curve].
Turning to `CC1Cc2cc(/C(O)=C3\C(=O)C(=O)N(CCN(C)C)C3c3ccccc3F)ccc2O1` (stereo not drawn), the AC50 is 3.66 µM [rising, single point].
As to `CNC(=O)c1ccc2nc(NC(C)=O)sc2c1`, the AC50 is 18.4 µM [rising, single point].
With `COc1cc(C(=O)NCCc2nc3ccccc3n2C)cc(OC)c1OC`, the AC50 was 23.1 µM [falling, single point].
As to `Nc1[nH]nc2nc(N3CCOCC3)nc(-c3ccccc3)c12`, the AC50 was 22.4 µM [falling, single point].
On to `COc1ccc2oc(-c3ccc(C)c(NC(=O)CSc4ccc(Cl)cc4)c3)nc2c1`, for which the AC50 was 39.8 µM [rising, partial curve, poor fit].
Turning to `Cc1nnc(SCC(=O)Nc2ccc3c(c2)OCCO3)n1N`, the AC50 is 1.16 µM [rising, full curve, poor fit].
Turning to `CCOc1cc(C2C(C(=O)OC)=C(C)NC3=C2C(=O)c2ccccc23)c(Br)cc1O` (stereo not drawn), the AC50 is 11.2 µM [falling, single point].
Consider `COCC(=O)N1CCC(Oc2ccc(C(=O)N3C[C@@H]4CCC[C@H]3C4)cc2)CC1`, for which the AC50 is 3.55 µM [falling, single point].
With `Cn1nc(C(=O)OCC(=O)Nc2cc(Cl)ccc2C#N)c2ccccc2c1=O`, the AC50 is 23.1 µM [rising, partial curve, poor fit].
Then `C/C(=N\OC(=O)c1ccc(C)cc1)c1sc(C)nc1C`, with 25.9 µM [rising, single point]; and `CCN(CC)S(=O)(=O)c1ccc(NC(=O)c2cnccn2)cc1`, with 22.4 µM [rising, single point]; and `CC(=O)N(c1nnc(-c2ccc(C)cc2)s1)C1CCCC1`, with 5.01 µM [rising, full curve, poor fit].
On to `COc1cc(C(=O)NCCNc2nc3ccc(C)cc3cc2C#N)cc(OC)c1OC`, for which the concentration at half-maximal activity (AC50) was 2.51 µM [rising, full curve, poor fit].
As for `CN(C)c1ccc(N2C(=NC(=O)c3ccccc3)SC3CS(=O)(=O)CC32)cc1` (stereo not drawn), the AC50 was 22.4 µM [falling, single point].
Turning to `O=c1[nH]c(CSc2nnc(Cc3ccccc3)o2)nc2ccccc12`, the AC50 is 0.562 µM [falling, full curve].
